Reference: publication PMC12561377
Results are given in words; binding and its absence hold for the method and conditions named. Binding seen in cells or lysates may run through a third protein. Binding calls can cover weak binding; strength is not graded here. Where a sequence is shown, tags or fusion partners need not be part of it.

By UniProt entry, the sequences of proteins in these tests, tags left out. Where a name states a change or a piece, a line headed by the entry shows the natural chain unless it says otherwise.
UniProt Q96GR4: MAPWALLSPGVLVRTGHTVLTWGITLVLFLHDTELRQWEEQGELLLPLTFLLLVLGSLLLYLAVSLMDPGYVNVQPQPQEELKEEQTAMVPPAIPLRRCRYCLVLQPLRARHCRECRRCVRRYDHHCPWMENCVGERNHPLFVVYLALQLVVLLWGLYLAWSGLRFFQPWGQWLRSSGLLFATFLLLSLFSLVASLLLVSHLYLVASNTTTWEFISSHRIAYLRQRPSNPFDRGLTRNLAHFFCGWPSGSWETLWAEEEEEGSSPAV

Target: GST-ZDHHC12 (recombinant protein of ZDHHC12) (UniProt Q96GR4)
Assay: pull-down; GST fusion protein from E. coli BL21 captured on glutathione‐agarose beads, washed, incubated with cell lysate of the other protein overnight at 4 °C; only the target purified

B1: HDAC8 (in the cell lysate used for the GST pull-down) (enzyme, UniProt Q9BY41 1-377)
chain: MEEPEEPADSGQSLVPVYIYSPEYVSMCDSLAKIPKRASMVHSLIEAYALHKQMRIVKPKVASMEEMATFHTDAYLQHLQKVSQEGDDDHPDSIEYGLGYDCPATEGIFDYAAAIGGATITAAQCLIDGMCKVAINWSGGWHHAKKDEASGFCYLNDAVLGILRLRRKFERILYVDLDLHHGDGVEDAFSFTSKVMTVSLHKFSPGFFPGTGDVSDVGLGKGRYYSVNVPIQDGIQDEKYYQICESVLKEVYQAFNPKAVVLQLGADTIAGDPMCSFNMTPVGIGKCLKYILQWQLATLILGGGGYNLANTARCWTYLTGVILGKTLSSEIPDHEFFTAYGPDYVLEITPSCRPDRNEPHRIQQILNYIKGNLKHVV
- binding: binds
